Results published in PubChem BioAssay AID1508600 (Functional Genomics Laboratory (NCATS/FGL), 2020).
The whole screen tested about 53,000 sequences, of which about 3,700 (7%) were called active.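 Rule for the calls: active = gene knockdowns whose robust z-score for IL-1 alpha signal is at least 2 or at most -2, so actives lie on both sides; inactive = the rest.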 The list shows a part of the results.

Assay: Components of the Cytosolic LPS Sensing Pathway: Gene Identification via Genome-wide siRNA Screen;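 note: robust z of the log signal after scaling to non-targeting control siRNA wells of the plate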
Details: RAW264.7 macrophages, IL-1a HTRF, actives lie on both sides, screened at 100 nM (by protocol), cells primed 5 h with Pam3CSK4 first
Outline: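 Knockdown: 100 nM siRNA, 48h, RAW264.7. Stimulation: Pam3CSK4 5 h, then LipidA via TransIT-TKO 24 h. Output: supernatant IL-1a HTRF, negative-control-normalized, log robust z-score; viability by CellTiter-Glo.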

Sequence | z-score
GGACCUUGGAUUGACAGGUTT against Unkl | inactive: 0.819
GGGUUGUUUACAGUGAUCUTT against Fam126b | inactive: -0.43
GCUUGUACUGCUAAUACUUTT against Pggt1b | inactive: 1.9
GGAAGUCCAUCAGCUUUAUTT against Wdr78 | active: 2.29
GGCAUUGGUUAAAAAAGUUTT against Otx2 | inactive: 0.55
GCACUUCCUAACUGGUGCUTT against Olfr996 | inactive: -1.11
GGACGAGAUGAACAGCCUCTT against Chkb | inactive: 0.0671
CGGAAUGUCAAUUUAAAGATT against Adam18 | inactive: 1.63
GGCCCUUCCCAGAUAUGCATT against Gm16367 | inactive: 0.819
CGGCCAAUUUGCCUUUCUCTT against Hes1 | inactive: 1.88
GCUUGUAAUGGUUAAUGUATT against Wtap | inactive: -0.674
UCGAUGUACUGAGCUAAGGTT against Psme2 | inactive: 1.28
CGUGCCAUAAUACACUAUCTT against Gng5 | active: 2.79
CGUGUGAAGUAAAGAUGUUTT against Mrpl57 | inactive: 0.212
GGAAAACCACUACAAGUUCTT against Steap3 | inactive: 1.54
CCAUGAAGAUUUCUCGUUUTT against Ifrd1 | inactive: 0.232
AGGAGCUCCUCAAAGCUCUTT against Zfp395 | inactive: 0.665
GCGAAAGUCUACAAAAGAGTT against Thrap3 | inactive: -0.15
GCCUUAACUCUUCUGGGAGTT against Stam | inactive: 0.537
CCGUAUUGUCACUUGUGGGTT against Arpc1a | inactive: 0.479
GGGAGGAGGACAACAAGUATT against Smap1 | inactive: -1.26
CCAAUGAUAGACUUUAUACTT against Adgrv1 | inactive: -0.252
GGAGGUCACCUUCUCAAACTT against Mrgprf | inactive: 0.374
GCUACAUGGGCCUCACAUATT against Spaca4 | inactive: -0.199
GCUGUCACGAGGAAUCAUGTT against Scarf2 | inactive: -0.368
GGCUACCACAUCUGAUAACTT against Serpind1 | inactive: 0.314
CCAAGAAAUUGCACUGGGATT against A130050O07Rik | inactive: 0.781
GGAAUGUACCCAUAAAAGUTT against Nudt19 | inactive: 0.988
GGCUCUGUGCAGACAUUUCTT against Pop5 | inactive: -1.51
GGUGCAAGGAAAAACAAAATT against Ggh | inactive: -1.89

Another view of part of the listing above.
Sequence	z-score
GGGAGGAGGACAACAAGUATT against Smap1	inactive: -1.26
CCAAUGAUAGACUUUAUACTT against Adgrv1	inactive: -0.252
